This is one part of the list.
Compound: Cc1cc(ccc1-c1ccccc1)C(=O)N1CCCN(CC1)C(=O)CCl [compound 10]
Assay: probe-labelled cysteine peptide fold change vs DMSO (competition) (log2 fold change); higher = less target engagement (more negative = stronger competition)
Conditions: THP-1, incubation time: 4 h
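Also: competitive profiling in live THP-1 cells: cysteine peptides tagged with an iodoacetamide desthiobiotin (IA-DTB) probe, intensity after compound treatment relative to DMSO-treated cells.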

Chains of the proteins cited; added tags and fusions are not shown. Lines headed by an entry give the natural chain unless they say otherwise; changes in a name come on top.
UniProt Q96CS7: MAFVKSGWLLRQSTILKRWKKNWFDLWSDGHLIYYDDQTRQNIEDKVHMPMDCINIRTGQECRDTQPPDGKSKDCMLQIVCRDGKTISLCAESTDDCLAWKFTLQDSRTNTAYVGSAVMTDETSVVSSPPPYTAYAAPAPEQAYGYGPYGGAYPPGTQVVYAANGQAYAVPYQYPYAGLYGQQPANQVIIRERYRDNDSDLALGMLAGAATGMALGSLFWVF
UniProt Q10713: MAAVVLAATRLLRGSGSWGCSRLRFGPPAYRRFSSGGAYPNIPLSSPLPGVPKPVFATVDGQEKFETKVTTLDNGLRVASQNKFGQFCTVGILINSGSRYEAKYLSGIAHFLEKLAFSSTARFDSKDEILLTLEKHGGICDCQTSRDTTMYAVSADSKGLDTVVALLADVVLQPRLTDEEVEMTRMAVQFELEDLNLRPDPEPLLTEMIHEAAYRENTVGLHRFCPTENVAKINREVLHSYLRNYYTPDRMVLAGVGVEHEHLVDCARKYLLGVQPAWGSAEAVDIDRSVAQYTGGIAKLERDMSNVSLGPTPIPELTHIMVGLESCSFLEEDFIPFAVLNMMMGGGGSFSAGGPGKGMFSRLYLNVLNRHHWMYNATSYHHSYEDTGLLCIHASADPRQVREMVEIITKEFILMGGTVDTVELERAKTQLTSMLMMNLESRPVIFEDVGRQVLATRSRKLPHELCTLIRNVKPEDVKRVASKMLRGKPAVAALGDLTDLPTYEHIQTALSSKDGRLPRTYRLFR
UniProt Q9UP65: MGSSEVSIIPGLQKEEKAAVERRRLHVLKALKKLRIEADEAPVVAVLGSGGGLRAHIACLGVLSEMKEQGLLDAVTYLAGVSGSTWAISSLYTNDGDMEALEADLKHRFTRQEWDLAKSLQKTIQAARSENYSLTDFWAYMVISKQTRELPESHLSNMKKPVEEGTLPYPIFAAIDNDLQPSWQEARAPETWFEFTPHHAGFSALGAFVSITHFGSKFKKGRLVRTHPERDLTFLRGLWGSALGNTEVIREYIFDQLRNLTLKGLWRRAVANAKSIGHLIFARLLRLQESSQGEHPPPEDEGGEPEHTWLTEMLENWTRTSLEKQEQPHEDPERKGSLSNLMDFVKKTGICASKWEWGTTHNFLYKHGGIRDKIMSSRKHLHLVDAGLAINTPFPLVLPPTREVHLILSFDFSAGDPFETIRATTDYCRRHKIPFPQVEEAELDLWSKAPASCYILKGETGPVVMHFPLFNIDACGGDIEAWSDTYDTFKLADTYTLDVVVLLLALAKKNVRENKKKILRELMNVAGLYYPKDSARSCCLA
UniProt P29590: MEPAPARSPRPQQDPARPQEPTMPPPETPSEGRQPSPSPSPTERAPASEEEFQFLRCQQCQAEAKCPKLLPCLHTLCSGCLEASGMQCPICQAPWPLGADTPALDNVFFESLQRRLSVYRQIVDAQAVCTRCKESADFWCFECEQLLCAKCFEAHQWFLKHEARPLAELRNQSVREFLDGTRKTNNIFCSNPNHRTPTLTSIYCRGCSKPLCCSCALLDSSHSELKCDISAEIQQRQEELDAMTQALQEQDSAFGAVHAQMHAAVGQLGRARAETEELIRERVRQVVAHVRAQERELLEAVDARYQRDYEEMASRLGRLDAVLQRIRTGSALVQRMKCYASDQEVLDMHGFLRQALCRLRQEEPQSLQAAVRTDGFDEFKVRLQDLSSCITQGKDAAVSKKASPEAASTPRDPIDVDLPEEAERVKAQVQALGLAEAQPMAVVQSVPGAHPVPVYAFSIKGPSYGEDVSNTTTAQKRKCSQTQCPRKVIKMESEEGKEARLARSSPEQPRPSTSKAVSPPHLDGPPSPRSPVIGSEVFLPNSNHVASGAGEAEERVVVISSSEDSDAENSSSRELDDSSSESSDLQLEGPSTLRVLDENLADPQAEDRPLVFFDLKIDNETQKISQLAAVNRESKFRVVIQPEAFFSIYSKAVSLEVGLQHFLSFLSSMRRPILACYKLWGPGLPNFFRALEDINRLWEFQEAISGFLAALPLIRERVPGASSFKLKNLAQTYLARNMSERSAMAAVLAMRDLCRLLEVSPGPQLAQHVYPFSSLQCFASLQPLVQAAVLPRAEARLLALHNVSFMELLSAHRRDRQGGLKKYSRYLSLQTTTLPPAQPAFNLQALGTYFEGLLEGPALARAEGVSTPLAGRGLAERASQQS
UniProt Q9H8W4: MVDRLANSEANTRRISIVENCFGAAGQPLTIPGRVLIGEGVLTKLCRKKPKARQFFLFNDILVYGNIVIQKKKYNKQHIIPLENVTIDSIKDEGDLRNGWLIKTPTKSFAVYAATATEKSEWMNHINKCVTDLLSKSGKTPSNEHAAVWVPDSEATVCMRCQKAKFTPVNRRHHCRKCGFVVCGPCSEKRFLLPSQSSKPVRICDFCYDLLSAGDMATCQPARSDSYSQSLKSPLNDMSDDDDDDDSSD
UniProt P19174: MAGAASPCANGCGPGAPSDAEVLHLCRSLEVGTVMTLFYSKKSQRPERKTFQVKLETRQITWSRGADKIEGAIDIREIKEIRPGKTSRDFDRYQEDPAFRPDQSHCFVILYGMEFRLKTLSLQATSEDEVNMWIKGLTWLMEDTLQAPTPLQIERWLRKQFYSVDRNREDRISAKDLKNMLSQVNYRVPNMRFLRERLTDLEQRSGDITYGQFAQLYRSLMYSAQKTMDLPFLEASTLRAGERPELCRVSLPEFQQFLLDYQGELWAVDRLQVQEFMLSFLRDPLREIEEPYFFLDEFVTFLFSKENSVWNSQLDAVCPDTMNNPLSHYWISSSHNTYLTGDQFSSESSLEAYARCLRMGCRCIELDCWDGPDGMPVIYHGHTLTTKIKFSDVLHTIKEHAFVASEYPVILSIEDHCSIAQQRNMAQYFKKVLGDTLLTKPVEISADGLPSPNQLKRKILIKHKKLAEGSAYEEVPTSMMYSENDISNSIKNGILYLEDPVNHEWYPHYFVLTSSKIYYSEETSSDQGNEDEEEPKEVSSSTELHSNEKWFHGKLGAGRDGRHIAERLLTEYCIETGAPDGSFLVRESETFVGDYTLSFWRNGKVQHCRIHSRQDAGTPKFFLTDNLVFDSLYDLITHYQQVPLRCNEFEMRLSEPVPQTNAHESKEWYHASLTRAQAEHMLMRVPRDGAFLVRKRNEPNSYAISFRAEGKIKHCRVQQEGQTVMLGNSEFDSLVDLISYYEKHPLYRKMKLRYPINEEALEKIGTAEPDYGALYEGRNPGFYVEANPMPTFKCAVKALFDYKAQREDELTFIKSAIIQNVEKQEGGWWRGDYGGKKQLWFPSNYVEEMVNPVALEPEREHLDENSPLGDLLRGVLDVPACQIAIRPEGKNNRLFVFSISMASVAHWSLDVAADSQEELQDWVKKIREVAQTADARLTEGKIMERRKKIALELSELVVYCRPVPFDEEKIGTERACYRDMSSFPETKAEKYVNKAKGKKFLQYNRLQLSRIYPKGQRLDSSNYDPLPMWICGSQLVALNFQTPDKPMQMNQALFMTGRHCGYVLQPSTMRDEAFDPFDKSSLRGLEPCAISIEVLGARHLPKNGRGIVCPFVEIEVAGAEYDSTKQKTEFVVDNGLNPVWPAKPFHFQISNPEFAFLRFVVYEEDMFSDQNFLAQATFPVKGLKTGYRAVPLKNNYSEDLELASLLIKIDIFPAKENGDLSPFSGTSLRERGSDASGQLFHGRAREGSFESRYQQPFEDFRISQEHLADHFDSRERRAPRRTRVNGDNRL
UniProt P16885: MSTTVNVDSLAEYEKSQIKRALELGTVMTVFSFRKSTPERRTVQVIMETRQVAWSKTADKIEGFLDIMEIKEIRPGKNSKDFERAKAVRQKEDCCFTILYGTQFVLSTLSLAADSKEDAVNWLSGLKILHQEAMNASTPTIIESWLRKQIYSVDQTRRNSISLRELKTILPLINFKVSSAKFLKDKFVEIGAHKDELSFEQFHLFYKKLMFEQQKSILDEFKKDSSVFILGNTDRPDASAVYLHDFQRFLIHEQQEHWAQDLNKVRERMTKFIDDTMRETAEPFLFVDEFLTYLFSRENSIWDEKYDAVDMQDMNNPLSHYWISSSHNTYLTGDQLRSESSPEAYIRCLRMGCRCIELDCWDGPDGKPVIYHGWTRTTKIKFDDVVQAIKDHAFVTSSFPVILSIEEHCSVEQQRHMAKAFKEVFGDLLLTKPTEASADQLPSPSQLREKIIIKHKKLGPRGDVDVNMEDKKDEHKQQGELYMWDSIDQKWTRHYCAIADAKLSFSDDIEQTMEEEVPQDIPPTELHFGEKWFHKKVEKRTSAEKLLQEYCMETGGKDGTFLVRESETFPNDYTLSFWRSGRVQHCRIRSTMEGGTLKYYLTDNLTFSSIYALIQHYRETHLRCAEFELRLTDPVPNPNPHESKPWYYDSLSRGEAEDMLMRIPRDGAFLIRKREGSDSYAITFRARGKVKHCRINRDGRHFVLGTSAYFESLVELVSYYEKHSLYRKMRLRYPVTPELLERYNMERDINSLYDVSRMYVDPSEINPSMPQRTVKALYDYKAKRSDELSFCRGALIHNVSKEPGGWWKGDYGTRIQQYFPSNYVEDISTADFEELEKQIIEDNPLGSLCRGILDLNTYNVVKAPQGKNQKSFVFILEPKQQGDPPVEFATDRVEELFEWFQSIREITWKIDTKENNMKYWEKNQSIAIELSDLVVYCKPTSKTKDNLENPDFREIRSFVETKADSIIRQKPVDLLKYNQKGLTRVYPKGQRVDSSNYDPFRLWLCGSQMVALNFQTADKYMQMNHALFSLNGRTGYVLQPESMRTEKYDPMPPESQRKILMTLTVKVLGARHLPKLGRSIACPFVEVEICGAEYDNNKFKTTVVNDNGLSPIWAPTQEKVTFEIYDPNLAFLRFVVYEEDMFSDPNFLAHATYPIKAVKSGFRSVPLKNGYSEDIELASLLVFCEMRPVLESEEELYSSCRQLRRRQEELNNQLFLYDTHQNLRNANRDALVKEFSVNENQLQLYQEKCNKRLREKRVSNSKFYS
UniProt Q8NBT0: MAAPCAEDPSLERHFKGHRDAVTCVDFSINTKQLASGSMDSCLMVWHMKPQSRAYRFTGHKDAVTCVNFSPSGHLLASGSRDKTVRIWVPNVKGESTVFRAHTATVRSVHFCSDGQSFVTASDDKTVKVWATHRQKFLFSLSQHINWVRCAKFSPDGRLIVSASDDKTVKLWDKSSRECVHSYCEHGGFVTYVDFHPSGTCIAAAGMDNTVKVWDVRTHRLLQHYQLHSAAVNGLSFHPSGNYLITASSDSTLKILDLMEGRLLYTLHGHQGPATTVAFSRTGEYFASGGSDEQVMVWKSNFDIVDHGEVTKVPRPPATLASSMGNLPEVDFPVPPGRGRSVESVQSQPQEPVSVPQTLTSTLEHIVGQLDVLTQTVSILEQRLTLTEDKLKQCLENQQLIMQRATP
UniProt Q00722, whole entry, looked up: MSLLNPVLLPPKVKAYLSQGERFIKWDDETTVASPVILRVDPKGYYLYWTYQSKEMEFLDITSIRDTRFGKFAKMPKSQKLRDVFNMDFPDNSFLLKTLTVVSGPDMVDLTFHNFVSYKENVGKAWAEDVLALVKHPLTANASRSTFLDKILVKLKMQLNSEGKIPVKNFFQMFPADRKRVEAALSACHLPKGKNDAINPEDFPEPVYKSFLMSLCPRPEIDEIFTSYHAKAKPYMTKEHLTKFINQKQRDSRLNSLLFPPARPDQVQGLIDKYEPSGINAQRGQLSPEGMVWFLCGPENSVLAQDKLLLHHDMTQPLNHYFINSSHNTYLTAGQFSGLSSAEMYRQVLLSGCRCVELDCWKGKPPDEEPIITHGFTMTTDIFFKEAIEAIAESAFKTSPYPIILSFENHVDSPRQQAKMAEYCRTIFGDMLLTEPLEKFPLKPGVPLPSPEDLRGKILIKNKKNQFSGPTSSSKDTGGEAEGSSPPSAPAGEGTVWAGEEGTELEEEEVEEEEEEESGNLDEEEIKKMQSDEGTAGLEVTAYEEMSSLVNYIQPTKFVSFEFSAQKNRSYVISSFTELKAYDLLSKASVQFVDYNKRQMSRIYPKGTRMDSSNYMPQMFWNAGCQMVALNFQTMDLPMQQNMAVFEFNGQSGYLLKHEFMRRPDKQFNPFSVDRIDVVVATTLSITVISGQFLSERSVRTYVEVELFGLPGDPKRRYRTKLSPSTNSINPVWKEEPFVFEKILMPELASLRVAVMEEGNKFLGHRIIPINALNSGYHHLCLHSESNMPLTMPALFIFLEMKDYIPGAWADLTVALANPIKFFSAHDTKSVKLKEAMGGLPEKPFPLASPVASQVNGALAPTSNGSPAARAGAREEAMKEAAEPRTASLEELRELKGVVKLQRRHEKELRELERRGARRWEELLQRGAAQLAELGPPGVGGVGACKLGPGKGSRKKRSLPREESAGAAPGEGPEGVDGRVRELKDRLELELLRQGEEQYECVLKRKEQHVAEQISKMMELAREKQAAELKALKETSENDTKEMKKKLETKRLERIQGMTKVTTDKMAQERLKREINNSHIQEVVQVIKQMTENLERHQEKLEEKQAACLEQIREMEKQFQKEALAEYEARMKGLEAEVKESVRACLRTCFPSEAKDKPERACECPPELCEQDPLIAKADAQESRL

Row | Target | probe-labelled cysteine peptide fold change (10 µM) | probe-labelled cysteine peptide fold change (50 µM)
1 | PLD3_Q8IV08_366_LLISCWGHSEPSMR (UniProt Q8IV08) | -0.305 | 0.13
2 | PIP4K2C_Q8TBX8_176_CHGNTLLPQFLGMYR (UniProt Q8TBX8) | -0.0542 | -0.0681
3 | PLEKHG2_Q9H7P9_405_RLWIHCLQR (UniProt Q9H7P9) | 0.0514 | -0.202
4 | PLEKHB2_Q96CS7_75+81_DCMLQIVCR (UniProt Q96CS7) | 0.107 | 0.181
5 | PLA2G4A_P47712_634_DCPTIIHFVLANINFR (UniProt P47712) | -0.152 | -0.426
6 | PLBD2_Q8NHP8_495_ACNPQPNGENAISAR (UniProt Q8NHP8) | 0.043 | -0.493
7 | PKN2_Q16513_704_DEVDSLMCEK (UniProt Q16513) | -0.103 | -0.0158
8 | PMPCA_Q10713_266_MVLAGVGVEHEHLVDCAR (UniProt Q10713) | -0.00401 | 0.131
9 | PLA2G4C_Q9UP65_351_KTGICASK (UniProt Q9UP65) | -0.289 | -1.38
10 | PIK3CD_O00329_500_HSECVHVTEEEQLQLR (UniProt O00329) | -0.182 | -0.107
11 | PKN3_Q6P5Z2_131_QGAENMTHTCASGTPK (UniProt Q6P5Z2) | -0.00333 | -0.199
12 | POFUT1_Q9H488_140_KTCPMK (UniProt Q9H488) | -0.0727 | -0.0923
13 | PML_P29590_479_CSQTQCPR (UniProt P29590) | -0.126 | -0.65
14 | PLEKHF2_Q9H8W4_129_CVTDLLSK (UniProt Q9H8W4) | 0.227 | 0.24
15 | PIN1_Q13526_113_SGEEDFESLASQFSDCSSAK (UniProt Q13526) | -0.176 | -0.424
16 | PLEC_Q15149_530_SEFERLECLQR (UniProt Q15149) | -0.204 | -0.637
17 | PLCG1_P19174_417_EHAFVASEYPVILSIEDHCSIAQQR (UniProt P19174) | -0.274 | -0.19
18 | PLCG2_P16885_355_CIELDCWDGPDGKPVIYHGWTR (UniProt P16885) | -0.00939 | -0.0755
19 | PLEKHF2_Q9H8W4_158_TPSNEHAAVWVPDSEATVCMR (UniProt Q9H8W4) | 0.0069 | -0.416
20 | PITHD1_Q9GZP4_187_HEVTICNYEASANPADHR (UniProt Q9GZP4) | -0.0875 | -0.312

Row | Target | probe-labelled cysteine peptide fold change (10 µM) | probe-labelled cysteine peptide fold change (50 µM)
21 | PLS3_P13797_33_VDLNSNGFICDYELHELFK (UniProt P13797) | 0.358 | 0.113
22 | PML_P29590_204_TPTLTSIYCR (UniProt P29590) | -0.0612 | -0.396
23 | PLCG1_P19174_1088_GLEPCAISIEVLGAR (UniProt P19174) | 0.115 | 0.2
24 | PKM_P14618_474_GIFPVLCK (UniProt P14618) | -0.00938 | 0.0753
25 | PIP4P1_Q86T03_104_CGVCNEATPIK (UniProt Q86T03) | 0.0184 | -0.171
26 | POC1A_Q8NBT0_5_AAPCAEDPSLER (UniProt Q8NBT0) | 0.0986 | -0.0566
27 | POC1A_Q8NBT0_66_DAVTCVNFSPSGHLLASGSR (UniProt Q8NBT0) | -0.154 | -0.278
28 | PLK1_P53350_544_LILCPLMAAVTYIDEKR (UniProt P53350) | -0.0589 | -0.19
29 | PLEC_Q15149_950_LPLLAVCDYK (UniProt Q15149) | 0.0855 | -0.00812
30 | PMM2_O15305_136_SCSQEER (UniProt O15305) | 0.442 | 0.918
31 | PIK3R4_Q99570_84_LNSAQNCLPFQK (UniProt Q99570) | -0.17 | 0.0647
32 | PMPCA_Q10713_466_LPHELCTLIR (UniProt Q10713) | -0.174 | -0.302
33 | PLCB2_Q00722_188_RVEAALSACHLPK (UniProt Q00722) | -0.0468 | 0.0994
34 | PLCG2_P16885_496_HYCAIADAK (UniProt P16885) | -0.0625 | 0.0844
35 | PLAA_Q9Y263_263_HGECAQTIR (UniProt Q9Y263) | 0.0749 | -0.21
36 | PLXND1_Q9Y4D7_752_CEASPNPTSPQDCPR (UniProt Q9Y4D7) | 0.0199 | -0.2
37 | PKN1_Q16512_317_LAGPFPATHYSTLCK (UniProt Q16512) | 0.0998 | -0.443
38 | PNO1_Q9NRX1_64_RPVFPPLCGDGLLSGK (UniProt Q9NRX1) | -0.251 | -0.122
39 | PNPLA6_Q8IY17_418_CVSMPGDISGLQGGPR (UniProt Q8IY17) | -0.22 | -0.238
40 | PLXNB2_O15031_770_SDCSLCR (UniProt O15031) | 0.0427 | 0.0553

Single records, as listed above. Order of values: probe-labelled cysteine peptide fold change (10 µM)	probe-labelled cysteine peptide fold change (50 µM)
PLEC_Q15149_950_LPLLAVCDYK (UniProt Q15149) as listed: 0.0855	-0.00812
PLCB2_Q00722_188_RVEAALSACHLPK (UniProt Q00722) as listed: -0.0468	0.0994
